Assay results as given in the supplement of paper PMC8612539.
In brackets after ≈: the same amount, converted by molar mass. Further values from the same series stand in other lists.

Tested on: Escherichia coli
Assay: minimum inhibitory concentration (MIC)
Description: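 Broth microdilution MIC (Sensititre BOPO7F bovine plate, CLSI methods) of 19 antimicrobials against field isolates of P. multocida, M. haemolytica, H. somni (deep nasopharyngeal swabs) and E. coli, Enterococcus spp. (rectal swabs) from weaned dairy heifers. Incubation 16-24 h at 35 C. MIC is the lowest concentration preventing visible growth. Values with <= or > lie at the tested range limits. Trimethoprim-sulfamethoxazole is given as the trimethoprim component of a 1:19 mixture.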

CN1C[C@@H]2C[C@H]1CN2c1cc2c(cc1F)c(=O)c(C(=O)O)cn2C1CC1 [Danofloxacin]
Details | minimum inhibitory concentration [µg/mL]
isolate (source animal id): 1 | ≤ 0.12
isolate (source animal id): 2 | ≤ 0.12
isolate (source animal id): 3 | ≤ 0.12
isolate (source animal id): 4 | ≤ 0.12
isolate (source animal id): 5 | ≤ 0.12
isolate (source animal id): 6 | ≤ 0.12
isolate (source animal id): 7 | ≤ 0.12
isolate (source animal id): 17 | 0.25 (≈ 0.7 µM)
isolate (source animal id): 18 | ≤ 0.12
isolate (source animal id): 19 | ≤ 0.12
isolate (source animal id): 20 | ≤ 0.12
isolate (source animal id): 21 | ≤ 0.12
isolate (source animal id): 22 | ≤ 0.12
isolate (source animal id): 23 | ≤ 0.12
isolate (source animal id): 24 | ≤ 0.12
isolate (source animal id): 25 | 0.5 (≈ 1.4 µM)
isolate (source animal id): 26 | ≤ 0.12
isolate (source animal id): 27 | 0.5 (≈ 1.4 µM)
isolate (source animal id): 28 | ≤ 0.12
isolate (source animal id): 29 | 0.25 (≈ 0.7 µM)
isolate (source animal id): 30 | ≤ 0.12
isolate (source animal id): 31 | ≤ 0.12
isolate (source animal id): 32 | > 1
isolate (source animal id): 33 | > 1
isolate (source animal id): 34 | ≤ 0.12
isolate (source animal id): 35 | > 1
isolate (source animal id): 36 | ≤ 0.12
isolate (source animal id): 37 | ≤ 0.12
isolate (source animal id): 38 | 0.25 (≈ 0.7 µM)
isolate (source animal id): 39 | > 1
isolate (source animal id): 40 | ≤ 0.12
isolate (source animal id): 41 | ≤ 0.12
isolate (source animal id): 42 | ≤ 0.12
isolate (source animal id): 43 | > 1
isolate (source animal id): 44 | ≤ 0.12
isolate (source animal id): 45 | ≤ 0.12
isolate (source animal id): 46 | ≤ 0.12
isolate (source animal id): 47 | ≤ 0.12
isolate (source animal id): 48 | ≤ 0.12
isolate (source animal id): 49 | ≤ 0.12
isolate (source animal id): 50 | ≤ 0.12
isolate (source animal id): 51 | 0.25 (≈ 0.7 µM)
isolate (source animal id): 52 | ≤ 0.12
isolate (source animal id): 53 | ≤ 0.12
isolate (source animal id): 54 | ≤ 0.12
isolate (source animal id): 55 | ≤ 0.12
isolate (source animal id): 56 | ≤ 0.12
isolate (source animal id): 57 | > 1
isolate (source animal id): 58 | ≤ 0.12
isolate (source animal id): 59 | 0.5 (≈ 1.4 µM)
isolate (source animal id): 60 | ≤ 0.12
isolate (source animal id): 61 | 0.25 (≈ 0.7 µM)
isolate (source animal id): 62 | ≤ 0.12
isolate (source animal id): 63 | ≤ 0.12
isolate (source animal id): 64 | ≤ 0.12
isolate (source animal id): 65 | > 1
isolate (source animal id): 66 | ≤ 0.12
isolate (source animal id): 67 | > 1
isolate (source animal id): 68 | ≤ 0.12
isolate (source animal id): 69 | ≤ 0.12
isolate (source animal id): 70 | ≤ 0.12
isolate (source animal id): 71 | ≤ 0.12
isolate (source animal id): 72 | ≤ 0.12
isolate (source animal id): 73 | ≤ 0.12
isolate (source animal id): 74 | ≤ 0.12
isolate (source animal id): 75 | ≤ 0.12
isolate (source animal id): 76 | ≤ 0.12
isolate (source animal id): 77 | ≤ 0.12
isolate (source animal id): 78 | ≤ 0.12
isolate (source animal id): 79 | ≤ 0.12
isolate (source animal id): 80 | ≤ 0.12
isolate (source animal id): 81 | ≤ 0.12
isolate (source animal id): 82 | ≤ 0.12
isolate (source animal id): 83 | ≤ 0.12
isolate (source animal id): 84 | ≤ 0.12
isolate (source animal id): 85 | ≤ 0.12
isolate (source animal id): 86 | > 1
isolate (source animal id): 87 | ≤ 0.12
isolate (source animal id): 88 | ≤ 0.12
isolate (source animal id): 89 | ≤ 0.12
isolate (source animal id): 90 | ≤ 0.12
isolate (source animal id): 91 | ≤ 0.12
isolate (source animal id): 92 | > 1
isolate (source animal id): 93 | > 1
isolate (source animal id): 94 | > 1
isolate (source animal id): 95 | 1 (≈ 2.8 µM)
isolate (source animal id): 96 | ≤ 0.12
isolate (source animal id): 97 | ≤ 0.12
isolate (source animal id): 189 | > 1
isolate (source animal id): 190 | ≤ 0.12
isolate (source animal id): 191 | ≤ 0.12
isolate (source animal id): 192 | ≤ 0.12
isolate (source animal id): 193 | ≤ 0.12
isolate (source animal id): 194 | ≤ 0.12
isolate (source animal id): 195 | ≤ 0.12
isolate (source animal id): 196 | ≤ 0.12
isolate (source animal id): 197 | ≤ 0.12
isolate (source animal id): 198 | 0.25 (≈ 0.7 µM)
isolate (source animal id): 199 | 0.5 (≈ 1.4 µM)
isolate (source animal id): 200 | 0.25 (≈ 0.7 µM)
isolate (source animal id): 201 | ≤ 0.12
isolate (source animal id): 202 | ≤ 0.12
isolate (source animal id): 203 | ≤ 0.12
isolate (source animal id): 204 | ≤ 0.12
isolate (source animal id): 205 | ≤ 0.12
isolate (source animal id): 206 | ≤ 0.12
isolate (source animal id): 207 | ≤ 0.12
isolate (source animal id): 208 | ≤ 0.12
isolate (source animal id): 209 | ≤ 0.12
isolate (source animal id): 210 | ≤ 0.12
isolate (source animal id): 211 | ≤ 0.12
isolate (source animal id): 212 | 0.5 (≈ 1.4 µM)
isolate (source animal id): 213 | ≤ 0.12
isolate (source animal id): 214 | ≤ 0.12
isolate (source animal id): 215 | ≤ 0.12
isolate (source animal id): 216 | ≤ 0.12
isolate (source animal id): 217 | ≤ 0.12
isolate (source animal id): 218 | ≤ 0.12
isolate (source animal id): 219 | 0.25 (≈ 0.7 µM)
isolate (source animal id): 220 | ≤ 0.12
